Some of the results follow.
Each sequence was assayed against T1, OsSMF1 (Oryza sativa, UniProt Q6ZLB0 1-436) (assay: protein-binding microarray (RPBM); PBS, 2% BSA, 51.3 ng/ul salmon testes DNA, 50 uM zinc acetate, 200 nM TF, 25 C, 1 h; high values mean tight binding). Settings: protein: recombinant; tags: N-terminal polyhistidine and DsRed monomer fusion (pET32a); chain copies: 2; label: CyDye5-dUTP incorporated in the synthesized complementary strand; 3' TTTTT single-stranded linker to array surface; dsDNA, one strand shown.
T1 sequence: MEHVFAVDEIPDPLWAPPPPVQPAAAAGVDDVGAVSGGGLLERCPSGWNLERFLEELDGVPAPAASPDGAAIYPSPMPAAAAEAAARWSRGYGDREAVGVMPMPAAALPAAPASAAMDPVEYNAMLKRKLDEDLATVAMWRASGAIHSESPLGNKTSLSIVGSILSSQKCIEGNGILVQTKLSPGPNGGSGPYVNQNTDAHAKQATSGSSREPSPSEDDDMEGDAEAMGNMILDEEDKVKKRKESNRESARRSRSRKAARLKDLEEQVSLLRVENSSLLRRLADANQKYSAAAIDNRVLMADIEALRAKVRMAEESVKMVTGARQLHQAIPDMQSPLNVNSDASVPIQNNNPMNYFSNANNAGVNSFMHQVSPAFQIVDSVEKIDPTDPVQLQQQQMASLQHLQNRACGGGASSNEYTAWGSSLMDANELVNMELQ
In short: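 The binding signal for each feature is its fluorescence intensity in arbitrary units. An Axon 4000B scanner was used to read a custom Agilent array that had been made double-stranded with Cy5-dUTP primer extension, blocked with 2% BSA, incubated at 25 °C for 1 h with 200 nM protein in PBS, 2% BSA, salmon testes DNA and 50 µM zinc acetate, and washed. The protein was an N-terminal polyhistidine–DsRed transcription factor fusion from E. coli BL21-CodonPlus, purified on Ni–NTA.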

Row | Sequence | binding signal
1 | TATATACAAGTTCACCCCGAAACCTAGTCAGAGTATGACACGGAGTCACCTAGTGCAG | 4240 fluorescence intensity (a.u.)
2 | GGCGCTGCAGCACGTACGTGGTTGGTTGGTTGGTTGGTTGCGGAGTCACCTAGTGCAG | 4550 fluorescence intensity (a.u.)
3 | CGAGTGCCACGCGTGCGCCCACCGCCACGTCACCGATCCCCGGAGTCACCTAGTGCAG | 53800 fluorescence intensity (a.u.)
4 | GAGCCTTGATCACGTCACTTCTCTCCTCAGGACTAGTGGCCGGAGTCACCTAGTGCAG | 3370 fluorescence intensity (a.u.)
5 | GAGTATGGTAGATGGTGTCATGATCTCACGCCGTGTCTATCGGAGTCACCTAGTGCAG | 5250 fluorescence intensity (a.u.)
6 | AAATCAATAGTTTGGACAATACGTGTCTGCGTGTTCGTAACGGAGTCACCTAGTGCAG | 4560 fluorescence intensity (a.u.)
7 | TTTGTATTTCTGTCATGATTATGATGGTAGTAAATATGTACGGAGTCACCTAGTGCAG | 5030 fluorescence intensity (a.u.)
8 | TCGTATCGCTTTGGCTATGTGGGCTTGGTCACGTCCACTGCGGAGTCACCTAGTGCAG | 3590 fluorescence intensity (a.u.)
9 | CGCAGAGATGCCTGACTGGGGAGGTCATCCCAGTCCGGTGCGGAGTCACCTAGTGCAG | 3850 fluorescence intensity (a.u.)
10 | GTGTAATAACACACTTGACAGTTGACGCGGCATCGCGAGACGGAGTCACCTAGTGCAG | 4560 fluorescence intensity (a.u.)
11 | GAGAGTATAACAGAAGCCACCTGGCGTCCGTGCCCACGGCCGGAGTCACCTAGTGCAG | 3670 fluorescence intensity (a.u.)
12 | AGCGGCGTCGTCTCGGCGGTGGCCGGTGCCACGGCGGCGGCGGAGTCACCTAGTGCAG | 6200 fluorescence intensity (a.u.)
13 | GGTTGGCGCGGCCGACCCACCGTCCCACTCCCACATGCCACGGAGTCACCTAGTGCAG | 3340 fluorescence intensity (a.u.)
14 | ATTCTTCAAAATACAAGAATTTCCTAGGGACAAAAGTTTCCGGAGTCACCTAGTGCAG | 13900 fluorescence intensity (a.u.)
15 | TACAGGAACAAATCAAGAAAGTTCCAGCTCACCAGCCAGTCGGAGTCACCTAGTGCAG | 4920 fluorescence intensity (a.u.)
16 | TCCACCTTTTCATCAATATAGTCATGCATTAATACAGTCACGGAGTCACCTAGTGCAG | 4500 fluorescence intensity (a.u.)
17 | ATACCAGTATTATTTTACCACGCCACTTTGTCATGGCAACCGGAGTCACCTAGTGCAG | 3210 fluorescence intensity (a.u.)
18 | AACGGTTGTGACTACCCTCAGTCCGTCGTCTAAGTCAAATCGGAGTCACCTAGTGCAG | 3180 fluorescence intensity (a.u.)
19 | TATGTATGAATGACAACACCGCCACGTCAGCGCCACGTCACGGAGTCACCTAGTGCAG | 50400 fluorescence intensity (a.u.)
20 | GGCTTGAATAAAGGTGTGTTTGGTTGGGTGGATGGAGCATCGGAGTCACCTAGTGCAG | 3320 fluorescence intensity (a.u.)
21 | GCTTCTTGGCGATGGGCTGACCAACCCGTGGTGTAGCCAGCGGAGTCACCTAGTGCAG | 3160 fluorescence intensity (a.u.)

Individual results from the results shown:
binding signal, GAGAGTATAACAGAAGCCACCTGGCGTCCGTGCCCACGGCCGGAGTCACCTAGTGCAG is entered as 3670 fluorescence intensity (a.u.)
binding signal, GCTTCTTGGCGATGGGCTGACCAACCCGTGGTGTAGCCAGCGGAGTCACCTAGTGCAG is entered as 3160 fluorescence intensity (a.u.)

(listing goes on)

Row | Sequence | binding signal
22 | GTATCGCGGTATGCACGTGCGAGACCGCCCTCGGTATCGCCGGAGTCACCTAGTGCAG | 37000 fluorescence intensity (a.u.)
23 | TTATGTTCCTCGAAGAAGAGATTAAGAGTGTGCGTGGAATCGGAGTCACCTAGTGCAG | 23500 fluorescence intensity (a.u.)
24 | AAGGGGTTACTAAATTTAGTCGGCATGACACACATGTATACGGAGTCACCTAGTGCAG | 3590 fluorescence intensity (a.u.)
25 | TTCGCATCATCGCATCACACACCTCCTCCTCCTCCTCCTCCGGAGTCACCTAGTGCAG | 3470 fluorescence intensity (a.u.)
26 | TCGCGAATCGAGAGGAGCAAACCAATATTAAAGGAGGCAACGGAGTCACCTAGTGCAG | 11300 fluorescence intensity (a.u.)
27 | CCTCAGCCTTGGTGCTAAGACAACTAACCTCAGCGCTACACGGAGTCACCTAGTGCAG | 20800 fluorescence intensity (a.u.)
28 | CGCGGGTGGTGGGGCTTGGATCCGAGGCGGAGAGGTGGTGCGGAGTCACCTAGTGCAG | 3860 fluorescence intensity (a.u.)
29 | GCGACCTCCGGCTCCAGCTTCCCTGACTGCATCAGCTCGACGGAGTCACCTAGTGCAG | 3440 fluorescence intensity (a.u.)
30 | CGCATTATCCCACCACAAAGGTAAGTAGCCCACGTGGCACCGGAGTCACCTAGTGCAG | 17100 fluorescence intensity (a.u.)
31 | ACCGTAAAATTCCACATCACCGTGAGGAAATCGTTAGGGCCGGAGTCACCTAGTGCAG | 7070 fluorescence intensity (a.u.)
32 | ACCAGAGGAGTACGCGTGGCGGCTGCGCGTGTTCGCCGCCCGGAGTCACCTAGTGCAG | 3240 fluorescence intensity (a.u.)
33 | ATTATGTTGATGATGACAATGCATCAGATAATGGCCCTATCGGAGTCACCTAGTGCAG | 7820 fluorescence intensity (a.u.)
34 | AAAGACAAATCTGTTGCTGGGGTGTTGTCATTGGTCAGGTCGGAGTCACCTAGTGCAG | 4270 fluorescence intensity (a.u.)
35 | ACTGCCGCACCACGTCGCACAGCGCCGCCACATCTTTCTCCGGAGTCACCTAGTGCAG | 4230 fluorescence intensity (a.u.)
36 | TCAGCAGTAAAGGACAGAAGGCGAAAAGATTTGAGATCTTCGGAGTCACCTAGTGCAG | 65500 fluorescence intensity (a.u.)
37 | CCTCCTCGGGCACTCCTCCTACCACCGTCACCACCTCGCACGGAGTCACCTAGTGCAG | 4470 fluorescence intensity (a.u.)
38 | TGACTCAAAGTTGGATGATGTCACTTCGCTCCATCTGCAGCGGAGTCACCTAGTGCAG | 8560 fluorescence intensity (a.u.)
39 | GGCGCCGCCCTCGGCCCACCGCGTCGGCGTCGCCTCCGCCCGGAGTCACCTAGTGCAG | 14600 fluorescence intensity (a.u.)
40 | GCGGGGTTGGAGGAGGAGGAGGTGGTGGTGGTGGTGGTGGCGGAGTCACCTAGTGCAG | 4860 fluorescence intensity (a.u.)
41 | ACATCTAGTGAAACATTGCAACATCTCTTTAATATATAGTCGGAGTCACCTAGTGCAG | 3490 fluorescence intensity (a.u.)
42 | TCGTGTCCACCATTTTGATCCAGGCTATACATATTGTTTTCGGAGTCACCTAGTGCAG | 3290 fluorescence intensity (a.u.)

Source: article PMC7819943, “Rice protein-binding microarrays: a tool to detect cis-acting elements near promoter regions in rice”
